Patent publication US20190380957A1 (New Jersey Institute of Technology, priority 2018, published 2019)

Experiment: general procedure: Fmoc solid-phase peptide synthesis
Settings: whole synthesis

PEPTIDE1{[ac].K.S.L.S.L.S.L.S.L.S.L.S.L.K.G.P.R.K.L.Y.D.Y.[am]}$$$$V2.0
final HPLC purity: >95%

Strings that start with PEPTIDE1 are HELM notation: dots part the residues, brackets hold end groups and non-standard residues.
